# Data: the supplement of paper PMC3682954
# Where a name gives a salt, the structure may show the parent alone. ± gives the standard deviation of the averaged measurements. Some of the results follow. Single values are uncertain, as repeats are few or missing.
# Test system: RAW 264.7
# Experiment: HMGB1-induced TNF-alpha production relative to HMGB1-stimulated control; higher = more TNF-alpha secretion (less inhibition)
# Settings: stimulus: HMGB1 5 ug/ml, 18 h
# [1] = compound concentration: 1 ug/ml
Structure (SMILES),HMGB1-induced TNF-alpha production (compound concentration: 3 uM),HMGB1-induced TNF-alpha production [1]
CN[C@@H]1[C@H](O)[C@H](NC)[C@H]2O[C@@]3(O)C(=O)C[C@@H](C)O[C@H]3O[C@@H]2[C@H]1O,88.7%,
CN[C@@H]1[C@H](O)[C@H](NC)[C@H]2O[C@@]3(O)C(=O)C[C@@H](C)O[C@H]3O[C@@H]2[C@H]1O [Spectinomycin dihydrochloride pentahydrate],,69.5%
CN[C@@H]1[C@H](O)[C@H](NC)[C@H]2O[C@@]3(O)C(=O)C[C@@H](C)O[C@H]3O[C@@H]2[C@H]1O [Spectinomycin dihydrochloride],127%,
CN[C@@H]1[C@H](O)[C@H](NC)[C@H]2O[C@@]3(O)C(=O)C[C@@H](C)O[C@H]3O[C@@H]2[C@H]1O [Spectinomycin],97.7%,
CN[C@H](CC(=O)O)C(=O)O [N-Methyl-D-aspartic acid],115%,
"O=C1C[C@@H](c2ccc(O)c(O)c2)Oc2cc(O)cc(O)c21 [Eriodictyol;  (3',4',5,7-tetrahydroxyflavanone)]",,72.3%
CCN(CC)c1ncnc2c1ncn2C1OC(CO)C(O)C1O (stereo not drawn),,64.3%
Cc1onc(-c2ccccc2Cl)c1C(=O)N[C@@H]1C(=O)N2[C@@H]1SC(C)(C)[C@@H]2C(=O)O [Cloxacillin sodium salt],86%,
Cc1onc(-c2ccccc2Cl)c1C(=O)N[C@@H]1C(=O)N2[C@@H]1SC(C)(C)[C@@H]2C(=O)O,77.1%,
C#Cc1cccc(Nc2ncnc3cc(OCCOC)c(OCCOC)cc23)c1 [Erlotinib],84.7 ± 25%,
CN(CCO)CC(O)Cn1cnc2c1c(=O)n(C)c(=O)n2C (stereo not drawn),107%,
"Cn1c(=O)c2[nH]c(-c3ccccc3)nc2n(C)c1=O [1,3-Dimethyl-8-phenylxanthine]",116%,
CC(C)Nc1cccnc1N1CCN(C(=O)c2cc3cc(NS(C)(=O)=O)ccc3[nH]2)CC1 [Delavirdine],93.3%,
OC[C@H]1NC[C@H](O)[C@@H](O)[C@@H]1O [1-Deoxynojirimycin hydrochloride],98.1%,
CC12CCC(CC1=O)C2(C)C (stereo not drawn),81%,
CC12CCC(CC1=O)C2(C)C [D-Camphor],,81.9%
C[C@@H]1NC(=O)[C@@H](N)CNC(=O)[C@H](C2CCNC(=N)N2)NC(=O)/C(=C/NC(N)=O)NC(=O)[C@H](CNC(=O)CC(N)CCCN)NC1=O.N=C1NCC[C@H]([C@@H]2NC(=O)/C(=C/NC(N)=O)NC(=O)[C@H](CNC(=O)C[C@@H](N)CCCN)NC(=O)[C@H](CO)NC(=O)[C@@H](N)CNC2=O)N1,84.5%,
CN[C@@H]1[C@@H](O[C@H]2O[C@H](CO)[C@@H](N)[C@H](O)[C@H]2O)OC2C[C@@H](N)[C@@H](O[C@H]3[C@H](O)[C@@H](O)[C@H](N)C[C@@H]3N)OC2[C@@H]1O (stereo partly drawn),88.1%,
CN[C@@H]1[C@@H](O[C@H]2O[C@H](CO)[C@@H](N)[C@H](O)[C@H]2O)OC2C[C@@H](N)[C@@H](O[C@H]3[C@H](O)[C@@H](O)[C@H](N)C[C@@H]3N)OC2[C@@H]1O (stereo partly drawn) [Apramycin],99.23 ± 0.98%,
Cc1c(-c2ccccc2)oc2c(C(=O)OCCN3CCCCC3)cccc2c1=O [Flavoxate hydrochloride],88.7%,
NCCCC(=O)O [gamma-AMINOBUTYRIC ACID],83.5%,
CCCCCCCCCCCCCCCCCCCCCCO,90.1%,
CCN(CC)CCNC(=O)c1cc(Cl)c(N)cc1OC [Metoclopramide],115%,

Structure (SMILES),HMGB1-induced TNF-alpha production (compound concentration: 3 uM),HMGB1-induced TNF-alpha production [1]
CCN(CC)CCNC(=O)c1cc(Cl)c(N)cc1OC [Metoclopramide hydrochloride],107%,
CCN(CC)CCNC(=O)c1cc(Cl)c(N)cc1OC,86.2%,
CCN(CC)CCNC(=O)c1cc(Cl)c(N)cc1OC [Metoclopramide monohydrochloride],68.3%,
NCCCNCCCCNCCCN [Spermine tetrahydrochloride],114%,
CN(C)C/C=C(/c1ccc(Br)cc1)c1cccnc1 [Zimelidine dihydrochloride monohydrate],78%,
CN(C)C/C=C(/c1ccc(Br)cc1)c1cccnc1 [Zimelidine dihydrochloride],88.2%,
CC(C)(CO)C(O)C(=O)NCCCO (stereo not drawn),84.2%,
CC(C)(CO)C(O)C(=O)NCCCO (stereo not drawn) [Panthenol (D)],78.3%,
CCOc1ccc2ccccc2c1C(=O)N[C@@H]1C(=O)N2[C@@H]1SC(C)(C)[C@@H]2C(=O)O,98.3%,
CCOc1ccc2ccccc2c1C(=O)N[C@@H]1C(=O)N2[C@@H]1SC(C)(C)[C@@H]2C(=O)O [Nafcillin sodium salt monohydrate],119%,
Cn1cnc2c1c(=O)[nH]c(=O)n2C [Theobromine],107 ± 17%,76.8%
Cn1cnc2c1c(=O)[nH]c(=O)n2C,83.7%,
C[n+]1c2cc(N)ccc2cc2ccc(N)cc21,62.2 ± 8.9%,
O=C(N[C@H](CO)[C@H](O)c1ccc([N+](=O)[O-])cc1)C(Cl)Cl [Chloramphenicol],84 ± 20%,70.4%
O=C(N[C@H](CO)[C@H](O)c1ccc([N+](=O)[O-])cc1)C(Cl)Cl,87.5 ± 7.1%,
O=C(O)CCNC(=O)c1ccccc1,84.7%,
O=C(O)C1OC(O)C(O)C(O)C1O (stereo not drawn),,75.8%
CCC[C@@H]1C[C@@H](C(=O)N[C@@H]([C@H]2O[C@H](SC)[C@H](O)[C@@H](O)[C@H]2O)[C@H](C)Cl)N(C)C1,88.2 ± 4.3%,
CCC[C@@H]1C[C@@H](C(=O)N[C@@H]([C@H]2O[C@H](SC)[C@H](O)[C@@H](O)[C@H]2O)[C@H](C)Cl)N(C)C1 [Clindamycin],93.6 ± 7.9%,
CCC[C@@H]1C[C@@H](C(=O)N[C@@H]([C@H]2O[C@H](SC)[C@H](O)[C@@H](O)[C@H]2O)[C@H](C)Cl)N(C)C1 [Clindamycin hydrochloride],77.8%,
C=C1/C(=C\C=C2/CCC[C@]3(C)[C@@H]([C@H](C)CCCC(C)C)CC[C@@H]23)C[C@@H](O)C[C@@H]1O [Alfacalcidol],95.6 ± 11%,
"CCN(CC)CCOC(=O)c1cc(Cl)c(N)cc1OC [SDZ-205,557 hydrochloride]",102%,
NC/C=C/C(=O)O [(E)-4-amino-2-butenoic acid],115%,

# Rewritten bar-delimited: entries from further up.
Structure (SMILES) | HMGB1-induced TNF-alpha production (compound concentration: 3 uM) | HMGB1-induced TNF-alpha production [1]
CCN(CC)CCNC(=O)c1cc(Cl)c(N)cc1OC | 86.2% | 
CCN(CC)CCNC(=O)c1cc(Cl)c(N)cc1OC [Metoclopramide monohydrochloride] | 68.3% | 
NCCCNCCCCNCCCN [Spermine tetrahydrochloride] | 114% | 
CN(C)C/C=C(/c1ccc(Br)cc1)c1cccnc1 [Zimelidine dihydrochloride monohydrate] | 78% | 
CN(C)C/C=C(/c1ccc(Br)cc1)c1cccnc1 [Zimelidine dihydrochloride] | 88.2% | 
CC(C)(CO)C(O)C(=O)NCCCO (stereo not drawn) | 84.2% | 
CC(C)(CO)C(O)C(=O)NCCCO (stereo not drawn) [Panthenol (D)] | 78.3% | 
CCOc1ccc2ccccc2c1C(=O)N[C@@H]1C(=O)N2[C@@H]1SC(C)(C)[C@@H]2C(=O)O | 98.3% | 
CCOc1ccc2ccccc2c1C(=O)N[C@@H]1C(=O)N2[C@@H]1SC(C)(C)[C@@H]2C(=O)O [Nafcillin sodium salt monohydrate] | 119% | 
Cn1cnc2c1c(=O)[nH]c(=O)n2C [Theobromine] | 107 ± 17% | 76.8%
Cn1cnc2c1c(=O)[nH]c(=O)n2C | 83.7% | 
